# Source: the supplement of paper PMC3334620
# Whole data set: some 33,000 sequences, median “E-score (-0.5 to 0.5)” near -8e-05, cut for the highest 2% near 0.23. This is one part of the list.
# Biological target: T1, Nrg2 (UniProt P38082)
# T1 sequence: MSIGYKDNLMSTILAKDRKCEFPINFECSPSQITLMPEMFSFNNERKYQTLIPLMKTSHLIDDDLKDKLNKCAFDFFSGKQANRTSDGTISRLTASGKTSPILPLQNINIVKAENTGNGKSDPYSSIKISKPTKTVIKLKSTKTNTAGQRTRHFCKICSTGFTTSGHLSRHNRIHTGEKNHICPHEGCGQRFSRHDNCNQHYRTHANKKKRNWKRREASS
# Test: PBM E-score (8-mer binding enrichment) (E-score (-0.5 to 0.5)); higher = stronger / more preferred TF binding
# Conditions: protein concentration: 100 nM; construct: GST-full length
# Method in brief: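 Universal all-10-mer Agilent arrays, fresh or stripped once, were converted to double-stranded form by primer extension. GST-tagged yeast transcription factors from PURExpress in vitro transcription/translation, full-length or DNA-binding domain only, were applied at about 100-200 nM and detected with fluorescent anti-GST. After masliner normalisation, the Universal PBM Analysis Suite scored each ungapped eight-base word together with its reverse complement by E-score.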
row,Sequence,PBM E-score
1,CCGTAGCA,-0.175
2,ACCTTTGC,0.0694
3,ATAGAGTC,-0.134
4,GGTACTTA,-0.109
5,CCAGTGGG,-0.192
6,ACACGTCC,-0.254
7,CCGTCCGA,-0.257
8,CCGGGAAG,-0.0756
9,AAGATCGC,-0.0829
10,CGATACAG,0.053
11,CCAATTTC,0.18
12,AGAGTATG,-0.178
13,CAGTAGCC,-0.226
14,AAATCGCT,-0.165
15,CACGAACC,0.085
16,AACATGAT,0.0649
17,AAACACAC,0.106
18,TAATCCTA,-0.0418
19,AAGCGATC,-0.0176
20,ACCTACAT,0.00858
21,ACGGTACT,-0.0901
22,GGATAGAC,-0.199
23,GGGGCTAC,-0.135
24,CGCAAGAG,0.123
25,GATAGGAC,-0.218

row,Sequence,PBM E-score
1,ACATCACT,0.0115
2,CATCAACG,0.0557
3,GGGTTAGA,-0.0759
4,CAGCAATC,0.0368
5,TGGTACCA,0.172
6,ACGACATG,0.113
7,CTATTCAC,0.0524
8,AAAACCCG,0.202
9,CAAGAAGA,0.126
10,AAGAGTGT,-0.153
11,CAAAAACC,0.141
12,GCATTACA,0.152
13,CTCGCACA,0.106
14,GCTGGGGA,-0.0446
15,CTGACAGC,0.0539
16,CCAAAGTC,-0.0327
17,CGTTTTGC,-0.0176
18,GGCTGGAA,-0.0294
19,ATGTGTCC,0.0056
20,AACTAAGT,0.168
21,CGTGAGAG,-0.184
22,GGCCAAGA,-0.249
23,CCTTCACG,0.00598
24,CCCTGCAG,0.26
25,CTCGATGC,0.0943

row,Sequence,PBM E-score
1,GGCTACTA,0.0202
2,ACGATCAT,0.00749
3,CAGACAGA,0.117
4,CATCCCAA,-0.0514
5,GGTACGAC,-0.117
6,ACTTTCAG,-0.00105
7,GCACTCCA,-0.0773
8,CACTCCGC,0.0303
9,GCCGAGAC,-0.00484
10,CATATCTC,0.0747
11,CGGGATCA,-0.135
12,AAGTACGT,0.00281
13,ATCGCTTG,-0.0476
14,AGCCCAAT,-0.0858
15,ACGAATGC,-0.0388
16,GTCGGCAC,-0.13
17,ACTTTTCA,0.145
18,CCTTTGTA,-0.0822
19,CCACTGGG,-0.162
20,AGGCAATC,0.102
21,AAAATAAC,-0.118
22,AGCACACG,-0.151
23,CACGTGAA,0.035
24,CGCCGAAA,0.00516
25,CGGACATC,-0.12

# Pulled one by one from the entries so far, five records:
row,Sequence,PBM E-score
10,CATATCTC,0.0747
4,CATCCCAA,-0.0514
15,ACGAATGC,-0.0388
16,GTCGGCAC,-0.13
7,GCACTCCA,-0.0773

# Later entries:

row,Sequence,PBM E-score
1,TATGGAAA,0.0537
2,CCTACTAG,0.00257
3,CAGGATCA,0.0604
4,CAGGGTAA,0.215
5,GGTCAAGA,0.0338
6,AGTGGATC,0.0256
7,ATATGGCG,0.0752
8,CGCGGACC,0.14
9,GGCCCTTA,0.185
10,ACGTAATA,0.064
11,GCAACTCA,0.0464
12,CCGGCGAC,-0.186
13,ACAATAAC,0.174
14,AGGGTTCC,0.189
15,CTGAAGCA,0.0438
16,ACAAAAGG,4e-05
17,CCGCATCC,-0.0302
18,TAGCCTGA,-0.154
19,CTACCCAG,0.0371
20,CACTTAGG,-0.0865
21,ATTATAGA,0.0777
22,CAGGGGAG,-0.0725
23,CTCTTCGC,-0.121
24,CGGTTACG,-0.0776
25,CTCATAGC,-0.0958

# Rewritten tab-delimited: entries from further up
row	Sequence	PBM E-score
20	AACTAAGT	0.168
21	CGTGAGAG	-0.184
22	GGCCAAGA	-0.249

# The list continues.

row,Sequence,PBM E-score
1,ACTTGCCA,0.0732
2,ATGTGAGG,-0.0251
3,GAATTTTA,0.0447
4,AGGGGGAT,-0.256
5,ACTAGAAC,0.134
6,ATTTATTC,0.0954
7,GATCGATA,0.107
8,GGTACATA,0.0645
9,GAAAACGC,-0.0982
10,CCACAGAA,0.00358
11,AACACGAT,0.0947
12,AATCGCAC,-0.165
13,ATTGGGTA,-0.0882
14,GTTTATCA,0.187
15,ACGCGTTA,0.0891
16,ACGAGTTG,-0.0425
17,GGAATGCA,0.077
18,AGTTAGAT,-0.092
19,AGAGACTG,-0.181
20,ACTCGCCA,0.0381
21,ACCGAGCA,0.0403
22,ATCACCGC,-0.00903
23,AACCTCGG,-0.0648
24,GGTTAGAC,0.0624
25,CTTAGAAA,-0.159

row,Sequence,PBM E-score
1,CGCGCGGA,0.227
2,CTCGCCTC,-0.132
3,CTGCTCGC,0.0141
4,CTGGATAC,-0.108
5,ATTCTGCC,0.198
6,AAGTTCTG,-0.0661
7,TAGCAGGA,-0.0593
8,AATAGAAG,-0.0036
9,CAGAGACC,-0.212
10,GGGCGAAA,0.0498
11,AATGAGCG,0.187
12,CGATATCC,0.133
13,ACGGCGTC,-0.0952
14,CGTATAAC,-0.0636
15,GCGTCCAC,-0.148
16,AATTGGTG,0.109
17,ATACTGCC,0.0803
18,CATTTCCA,0.237
19,GCTTAAAA,-0.00191
20,CCACCTTA,0.0275
21,CAGTGTCC,-0.0662
22,GTCAGGAA,-0.0289
23,GTAAAATA,-0.0589
24,AACCGGCT,-0.0918
25,ACGCTGAT,-0.118

row,Sequence,PBM E-score
1,ATAGCTTG,-0.0154
2,CTCGCCCC,-0.166
3,ATAATAAG,0.0711
4,TAGTAAGA,0.107
5,AGGCTAAC,-0.106
6,CCTCACTC,-0.0183
7,CGGCGGTC,-0.0159
8,CAACACCC,0.135
9,GTGTTGTA,0.0321
10,ACATCTAT,0.128
11,CTCCAGAA,-0.196
12,AAGACATA,0.12
13,CTCGGGGA,-0.0217
14,AACAAGTC,0.0786
15,AGCACCCC,-0.124
16,GGACATAA,0.0478
17,AGTGATGA,-0.11
18,GTGAGTTA,0.094
19,CGCGGGAA,0.14
20,CCGCCGAA,0.0478
21,ACCCAGGC,0.012
22,GGAGATCA,0.0601
